Data as given in PubChem BioAssay AID504774 (Drosophila RNAi Screening Center, 2011).
The deposit covers about 23,000 reagents; this is an unselected part of those with a known target gene and a result. 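Values are quantile-normalised luminescence on an arbitrary scale; higher means more cells surviving MMS.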 The numbers tell different reagents against one gene apart. A plus sign joins genes that one reagent is predicted to hit. Further read-outs or replicates are left out here. Reagent sequences are not shown.

Assay: 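Knock-downs that shift viability of MMS-exposed cells relative to untreated ones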 (primary screen)
Cells: Drosophila Kc167 cells
Reagent: long dsRNA against Drosophila genes, about 0.25 µg dsRNA per well
Time to read-out: about 6 days: 3 days knock-down, then 3 days with or without MMS
Treatment: methyl methanesulphonate 0.004% (w/v) for 3 days after knock-down
Measurement: 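Viability in wells given MMS, read as ATP luminescence, normalised by quantiles plate by plate and averaged across replicates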
Scale: mean viability with MMS: higher = more surviving cells after MMS

lectin-46Cb
- mean viability with MMS: 3.47e6

Lnpk (Lunapark)
- mean viability with MMS: 3.63e6

CG3823
- mean viability with MMS: 3.53e6

CG4210
- mean viability with MMS: 3.70e6

modSP (modular serine protease) #1
- mean viability with MMS: 3.68e6

modSP (modular serine protease) #2
- mean viability with MMS: 3.64e6

modSP (modular serine protease) #3
- mean viability with MMS: 3.48e6

Trpml + CG42638
- mean viability with MMS: 3.40e6

Hsp110 (Heat shock protein 110)
- mean viability with MMS: 3.34e6

mag (magro)
- mean viability with MMS: 3.52e6

CG4502 #1
- mean viability with MMS: 3.39e6

CG4502 #2
- mean viability with MMS: 3.48e6

Amt (Ammonium transporter)
- mean viability with MMS: 3.41e6

CG16812
- mean viability with MMS: 3.61e6

Mmp2 (Matrix metalloproteinase 2) #1
- mean viability with MMS: 3.58e6

Mmp2 (Matrix metalloproteinase 2) #2
- mean viability with MMS: 3.97e6

CG16736
- mean viability with MMS: 3.45e6

Gal (beta galactosidase)
- mean viability with MMS: 3.44e6

CG10793
- mean viability with MMS: 3.50e6

CG31368 #1
- mean viability with MMS: 3.45e6

CG31368 #2
- mean viability with MMS: 3.56e6

CG11828 #1
- mean viability with MMS: 3.44e6

CG11828 #2
- mean viability with MMS: 3.68e6

CG18139 (retired record) + Hmx
- mean viability with MMS: 3.37e6

CG32344
- mean viability with MMS: 3.50e6

CG42383
- mean viability with MMS: 3.51e6

CG9951
- mean viability with MMS: 3.65e6

lncRNA:CR42646 (long non-coding RNA:CR42646)
- mean viability with MMS: 3.45e6

CG32228
- mean viability with MMS: 3.46e6

CG5078
- mean viability with MMS: 3.59e6

schlank #1
- mean viability with MMS: 3.65e6

schlank #2
- mean viability with MMS: 3.57e6

p130CAS + Dic61B
- mean viability with MMS: 3.42e6

CG8072
- mean viability with MMS: 3.57e6

Vrp1 (Verprolin 1)
- mean viability with MMS: 3.43e6
